# ± gives the standard deviation of the averaged measurements. This is one part of the list. Single values are uncertain, as repeats are few or missing.
# Molecular target: T1, NSUN6 (UniProt Q8TEA1)
# T1 sequence: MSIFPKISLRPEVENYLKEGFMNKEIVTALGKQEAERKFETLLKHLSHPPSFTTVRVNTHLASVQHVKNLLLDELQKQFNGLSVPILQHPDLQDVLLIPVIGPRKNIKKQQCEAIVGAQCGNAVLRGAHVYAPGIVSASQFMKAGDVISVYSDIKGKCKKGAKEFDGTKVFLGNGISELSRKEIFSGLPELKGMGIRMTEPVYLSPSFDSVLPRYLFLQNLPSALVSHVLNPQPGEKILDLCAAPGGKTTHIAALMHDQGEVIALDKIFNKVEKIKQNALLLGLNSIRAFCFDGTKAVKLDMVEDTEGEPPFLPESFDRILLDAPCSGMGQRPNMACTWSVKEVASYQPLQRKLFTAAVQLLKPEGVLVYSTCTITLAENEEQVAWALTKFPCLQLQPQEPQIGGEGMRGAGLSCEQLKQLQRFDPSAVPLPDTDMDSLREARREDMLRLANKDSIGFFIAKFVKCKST
# Test: m5C methylation level at the target C (C/(C+U) bisulfite reads) (fraction); higher = more methylation by NSUN6; extreme values may be limits of the assay
# Details: HEK293T (wild-type)
# [1] = parent substrate: substrate #1 (main figure)
Sequence,m5C methylation level at the target C [1],m5C methylation level at the target C (parent substrate: substrate #2),m5C methylation level at the target C (parent substrate: substrate #3),m5C methylation level at the target C (parent substrate: substrate #4)
GCCUCA,0.000529,0,0,0.00162
CCUACC,0.000897,0,0.00102,0.000679
UCGCGA,0.00117,0.000965,0.00157,0.000542
UCGGAA,0,0.00906,0.00116,0.000507
ACUUUC,0,0,0.0017,0.000651
CCGCGG,0.000925,0,0.00208,0
ACCAAC,0,0.00126,0.000418,0.00145
GCGUUU,0.00144,0.00203,0.000408,0.000686
UCCGGA,0.00221,0.00253,0.00224,0.000668
GCACCU,0.00127,0,0.00152,0.00155
UCUCGU,0,0.00134,0.00353,0.00167
CCUCUU,0,0.00406,0.00823,0
UCUCCA,0.569 ± 0.018,0.139,0.594,0.652
CCGGAA,0.0013,0.00242,0.00126,0.00211
UCGAAU,0.00447,0.00219,0.00116,0.00125
UCCUGA,0.000466,0,0.000905,0
ACUAGC,0.00509,0.00105,0.000581,0.00385
CCAUGG,0.0093,0.00119,0.000598,0
GCAUCU,0.00421,0,0.00248,0
GCAACU,0,0,0.000528,0.000482
UCAUAA,0,0,0,0.00125

# Single records (already shown). Order of values: m5C methylation level at the target C [1]	m5C methylation level at the target C (parent substrate: substrate #2)	m5C methylation level at the target C (parent substrate: substrate #3)	m5C methylation level at the target C (parent substrate: substrate #4)
# GCACCU is listed as 0.00127	0	0.00152	0.00155
# GCAUCU is listed as 0.00421	0	0.00248	0

# The list continues:

Sequence,m5C methylation level at the target C [1],m5C methylation level at the target C (parent substrate: substrate #2),m5C methylation level at the target C (parent substrate: substrate #3),m5C methylation level at the target C (parent substrate: substrate #4)
GCCUUA,0.0033,0.00457,0.00122,0.00127
CCUGGC,0.00257,0.00167,0.000678,0.000898
GCCUUC,0.00495,0,0.00431,0.00893
ACUAUC,0.000938,0,0.00202,0
UCCGUG,0.00181,0,0.0028,0.0018
ACUGAU,0.00108,0.00161,0.0018,0
CCAGGU,0.00118,0.00177,0,0
UCCGUU,0.000662,0,0,0
ACCUAA,0.000916,0.000946,0,0
ACUAAU,0.000749,0,0.000929,0.000462
UCACGU,0.000602,0.00251,0.00114,0.0082
GCCGUA,0,0.00333,0.00225,0.00232
CCGGUA,0.00206,0,0.00614,0.00371
CCGCGU,0,0.00108,0.000981,0.000558
ACCCCU,0.00124,0,0.000649,0.00322
ACGUGA,0,0.0081,0.00685,0.00298
CCUUUG,0.0015,0.00242,0.000973,0.00336
GCACCG,0,0,0.00192,0.000459
ACCGGU,0,0.00527,0,0
GCUUGG,0.00498,0,0.000955,0.00136
ACCUGC,0.000684,0.00227,0.00193,0.0144
